Assay results taken from article doi:10.1101/2020.08.16.245639.

How the values were obtained:
[1] = biological target: 3×FLAG-KDM3A; experiment: affinity purification with mass spectrometry
[2] = biological target: 3×FLAG-KDM3B; experiment: affinity purification with mass spectrometry

binding [1]: binds
binding [2]: binds
B1: HMGB2 (protein, UniProt P17741 1-210)
chain: MGKGDPNKPRGKMSSYAFFVQTCREEHKKKHPDSSVNFAEFSKKCSERWKTMSAKEKSKFEDMAKSDKARYDREMKNYVPPKGDKKGKKKDPNAPKRPPSAFFLFCSEHRPKIKSEHPGLSIGDTAKKLGEMWSEQSAKDKQPYEQKAAKLKEKYEKDIAAYRAKGKGEAGKKGPGRPTGSKKKNEPEDEEEEEEEEEDEDEEEEDEDEE

No constants are given. Whether binding was seen depends on the method and setting. In cells and extracts the contact can be indirect. These calls come from enrichment with a bait or labelling near it, and not all partners need be listed.
